The target of the assay is Cyclin-dependent kinase 1/cyclin B (Homo sapiens, UniProt P06493). It counts as protein-complex assay.

`CC(C)n1cnc2c(NCc3ccccc3)nc(NCCCO)nc21` [BOHEMINE]: 1100 nM corresponded to half-maximal inhibition (IC50).

Source of the values: ChEMBL document CHEMBL1134966 (Bioorg Med Chem Lett, 2002).
